The results in this text go back to paper PMC5517149.

The chains behind the UniProt entries cited, without tags or fusion partners.
UniProt Q9H6L5: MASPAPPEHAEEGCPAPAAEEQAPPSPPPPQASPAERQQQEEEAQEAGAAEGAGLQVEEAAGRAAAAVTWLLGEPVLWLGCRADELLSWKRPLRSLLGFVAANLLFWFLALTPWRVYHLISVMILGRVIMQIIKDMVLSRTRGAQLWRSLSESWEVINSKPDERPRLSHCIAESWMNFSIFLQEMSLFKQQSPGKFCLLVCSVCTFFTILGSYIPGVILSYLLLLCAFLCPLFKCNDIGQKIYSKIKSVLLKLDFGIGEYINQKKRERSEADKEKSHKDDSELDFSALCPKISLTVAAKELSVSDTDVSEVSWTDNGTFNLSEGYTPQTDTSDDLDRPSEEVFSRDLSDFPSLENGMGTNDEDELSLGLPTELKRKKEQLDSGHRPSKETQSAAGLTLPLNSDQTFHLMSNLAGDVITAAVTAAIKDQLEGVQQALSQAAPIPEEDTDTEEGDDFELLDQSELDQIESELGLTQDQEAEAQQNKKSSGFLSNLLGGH
UniProt Q9NQC3: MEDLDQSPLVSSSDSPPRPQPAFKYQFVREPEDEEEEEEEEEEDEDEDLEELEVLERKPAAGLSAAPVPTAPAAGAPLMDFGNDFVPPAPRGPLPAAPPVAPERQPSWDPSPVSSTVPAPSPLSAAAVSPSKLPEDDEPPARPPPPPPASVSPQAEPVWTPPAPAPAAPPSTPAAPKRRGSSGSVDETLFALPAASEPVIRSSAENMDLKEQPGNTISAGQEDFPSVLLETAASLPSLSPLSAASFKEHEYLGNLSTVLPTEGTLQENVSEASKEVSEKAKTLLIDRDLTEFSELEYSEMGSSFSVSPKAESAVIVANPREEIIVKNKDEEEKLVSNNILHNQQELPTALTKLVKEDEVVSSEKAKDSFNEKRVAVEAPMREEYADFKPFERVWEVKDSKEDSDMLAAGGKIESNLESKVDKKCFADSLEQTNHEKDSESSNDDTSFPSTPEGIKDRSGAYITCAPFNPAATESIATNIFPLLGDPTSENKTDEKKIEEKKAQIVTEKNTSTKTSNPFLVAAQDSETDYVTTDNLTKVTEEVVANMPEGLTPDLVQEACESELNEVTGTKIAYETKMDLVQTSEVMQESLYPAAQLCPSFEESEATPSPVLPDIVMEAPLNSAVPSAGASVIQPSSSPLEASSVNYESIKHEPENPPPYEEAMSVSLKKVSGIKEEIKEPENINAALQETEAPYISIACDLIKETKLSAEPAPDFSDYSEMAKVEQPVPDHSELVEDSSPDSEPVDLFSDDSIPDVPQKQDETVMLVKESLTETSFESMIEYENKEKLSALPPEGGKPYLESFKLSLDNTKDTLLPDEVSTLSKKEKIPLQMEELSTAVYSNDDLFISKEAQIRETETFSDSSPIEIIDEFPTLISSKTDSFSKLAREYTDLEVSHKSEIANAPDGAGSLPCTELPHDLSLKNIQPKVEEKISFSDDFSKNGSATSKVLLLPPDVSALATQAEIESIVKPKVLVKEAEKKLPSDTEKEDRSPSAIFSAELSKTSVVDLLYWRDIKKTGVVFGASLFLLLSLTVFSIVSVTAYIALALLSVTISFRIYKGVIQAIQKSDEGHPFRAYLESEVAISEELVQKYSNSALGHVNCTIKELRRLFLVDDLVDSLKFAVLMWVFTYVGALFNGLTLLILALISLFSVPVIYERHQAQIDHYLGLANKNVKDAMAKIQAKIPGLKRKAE
UniProt Q07065: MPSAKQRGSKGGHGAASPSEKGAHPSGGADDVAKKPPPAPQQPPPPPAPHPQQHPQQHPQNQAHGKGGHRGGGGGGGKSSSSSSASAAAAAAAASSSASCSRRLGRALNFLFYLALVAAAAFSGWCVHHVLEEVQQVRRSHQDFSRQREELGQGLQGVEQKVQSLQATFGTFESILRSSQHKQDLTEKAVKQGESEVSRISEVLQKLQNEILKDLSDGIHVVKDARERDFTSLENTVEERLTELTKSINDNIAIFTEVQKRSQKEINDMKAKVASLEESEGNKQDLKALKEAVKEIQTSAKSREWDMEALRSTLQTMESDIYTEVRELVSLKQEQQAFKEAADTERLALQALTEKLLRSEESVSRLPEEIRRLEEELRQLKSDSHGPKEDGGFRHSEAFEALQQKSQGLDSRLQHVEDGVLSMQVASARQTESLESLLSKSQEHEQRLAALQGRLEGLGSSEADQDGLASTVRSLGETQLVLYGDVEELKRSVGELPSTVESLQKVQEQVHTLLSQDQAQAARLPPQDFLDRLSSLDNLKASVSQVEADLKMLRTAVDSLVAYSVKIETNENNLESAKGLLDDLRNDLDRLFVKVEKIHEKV
UniProt Q14145: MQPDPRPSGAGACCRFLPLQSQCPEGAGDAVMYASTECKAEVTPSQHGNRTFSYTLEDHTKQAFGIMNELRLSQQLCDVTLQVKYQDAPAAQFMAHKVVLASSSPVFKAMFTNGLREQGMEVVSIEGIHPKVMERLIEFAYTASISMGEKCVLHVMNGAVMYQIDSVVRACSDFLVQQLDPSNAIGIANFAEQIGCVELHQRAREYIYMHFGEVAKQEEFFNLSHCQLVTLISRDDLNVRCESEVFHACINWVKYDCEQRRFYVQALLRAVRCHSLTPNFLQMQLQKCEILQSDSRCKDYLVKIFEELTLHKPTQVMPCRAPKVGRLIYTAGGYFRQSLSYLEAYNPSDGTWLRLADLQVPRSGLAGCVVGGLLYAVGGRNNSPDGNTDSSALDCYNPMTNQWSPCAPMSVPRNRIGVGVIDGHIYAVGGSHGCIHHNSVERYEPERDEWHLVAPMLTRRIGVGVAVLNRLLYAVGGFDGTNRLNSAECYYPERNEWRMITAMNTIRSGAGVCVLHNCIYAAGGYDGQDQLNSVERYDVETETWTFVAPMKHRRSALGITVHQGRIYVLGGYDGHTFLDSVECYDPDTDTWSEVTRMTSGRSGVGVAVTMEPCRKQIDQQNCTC
UniProt P60520: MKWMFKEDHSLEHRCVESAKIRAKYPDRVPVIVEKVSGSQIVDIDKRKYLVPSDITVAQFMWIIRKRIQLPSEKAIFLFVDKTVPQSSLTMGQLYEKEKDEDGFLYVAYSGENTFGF

Assay in all cases: affinity purification with mass spectrometry; SILAC; anti-HA-agarose IP from lysates of U2OS TRex cells expressing the FLAG-HA bait (doxycycline 24 hr, bafilomycin A1) against mock cells; 50 mM Tris/HCl pH 7.5, 120 mM NaCl, 1% NP40; LC-MS/MS
One test concerns the target T1, FLAG-HA-RTN2L (human) (UniProt O75298).
T1 sequence: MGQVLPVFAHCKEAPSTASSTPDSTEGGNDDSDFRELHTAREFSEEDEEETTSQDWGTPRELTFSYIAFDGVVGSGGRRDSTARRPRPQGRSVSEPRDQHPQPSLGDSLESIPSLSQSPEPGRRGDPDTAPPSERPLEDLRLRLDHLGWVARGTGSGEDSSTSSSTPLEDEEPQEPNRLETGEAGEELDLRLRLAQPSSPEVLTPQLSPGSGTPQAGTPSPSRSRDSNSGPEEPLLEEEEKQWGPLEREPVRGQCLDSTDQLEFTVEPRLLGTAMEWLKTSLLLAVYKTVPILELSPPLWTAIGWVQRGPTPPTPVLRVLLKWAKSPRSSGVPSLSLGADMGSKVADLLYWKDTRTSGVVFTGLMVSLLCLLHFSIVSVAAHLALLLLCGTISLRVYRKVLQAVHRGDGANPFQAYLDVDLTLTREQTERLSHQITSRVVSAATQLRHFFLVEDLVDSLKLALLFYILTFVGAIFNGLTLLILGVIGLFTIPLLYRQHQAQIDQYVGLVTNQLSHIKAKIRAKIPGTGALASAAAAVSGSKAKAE

For a further test, the target named is FLAG-HA-FAM134B (human) (UniProt Q9H6L5).
Another test concerns the target FLAG-HA-RTN4L (human) (UniProt Q9NQC3).

These are yes or no findings as the source states them, for the method shown. Binding seen in cells or lysates may run through a third protein. Here binding means that the protein was enriched with, or labelled near, the bait; the list need not be complete. For some assays here: Tags and fused reporters may be left off the sequences shown.

Turning to SQSTM1 (from UniProt Q13501 1-440), the binding entry with FLAG-HA-RTN2L (human) was “binds”.

Regarding CLIMP-63 (from UniProt Q07065 1-602), the binding result in the test with FLAG-HA-FAM134B (human) is listed as “binds”.

Turning to KEAP1 (from UniProt Q14145 1-624), the binding result with FLAG-HA-RTN2L (human) is recorded as “binds”.

As for “GABARAP-L2 (endogenous) (from UniProt P60520 1-117)”, the binding result with FLAG-HA-FAM134B (human) is given as “binds”.

B1: RNF41 (protein, UniProt Q9H4P4 1-317)
chain: MGYDVTRFQGDVDEDLICPICSGVLEEPVQAPHCEHAFCNACITQWFSQQQTCPVDRSVVTVAHLRPVPRIMRNMLSKLQIACDNAVFGCSAVVRLDNLMSHLSDCEHNPKRPVTCEQGCGLEMPKDELPNHNCIKHLRSVVQQQQTRIAELEKTSAEHKHQLAEQKRDIQLLKAYMRAIRSVNPNLQNLEETIEYNEILEWVNSLQPARVTRWGGMISTPDAVLQAVIKRSLVESGCPASIVNELIENAHERSWPQGLATLETRQMNRRYYENYVAKRIPGKQAVVVMACENQHMGDDMVQEPGLVMIFAHGVEEI
B1: the binding entry in the test with FLAG-HA-RTN4L (human) is recorded as “binds”.
